Source: PMC7850899, “Nutrient transceptors physically interact with the yeast S6/protein kinase B homolog, Sch9, a TOR kinase target” (Biochemical Journal, 2021)
No constants are given. Whether binding was seen depends on the method and setting. In cells and extracts the contact can be indirect. Some binding calls cover weakened binding; strength is not graded here. Where a sequence is shown, tags or fusion partners need not be part of it.

Assays:
Experiment in all cases: split reporter; BiFC with split Citrine on genomically tagged proteins in living S. cerevisiae, confocal microscopy; cells starved for the transceptor's substrate (nitrogen 24 h, phosphate 72 h, sulfate 48 h); Gnp1 and Mup3 strains also in exponential growth
[1] = molecular target: T1, Mup3 tagged with the N-terminal half of Citrine (MUP3-N-Citrine) (S. cerevisiae (endogenous gene, tagged)) (UniProt P38734)
T1 sequence: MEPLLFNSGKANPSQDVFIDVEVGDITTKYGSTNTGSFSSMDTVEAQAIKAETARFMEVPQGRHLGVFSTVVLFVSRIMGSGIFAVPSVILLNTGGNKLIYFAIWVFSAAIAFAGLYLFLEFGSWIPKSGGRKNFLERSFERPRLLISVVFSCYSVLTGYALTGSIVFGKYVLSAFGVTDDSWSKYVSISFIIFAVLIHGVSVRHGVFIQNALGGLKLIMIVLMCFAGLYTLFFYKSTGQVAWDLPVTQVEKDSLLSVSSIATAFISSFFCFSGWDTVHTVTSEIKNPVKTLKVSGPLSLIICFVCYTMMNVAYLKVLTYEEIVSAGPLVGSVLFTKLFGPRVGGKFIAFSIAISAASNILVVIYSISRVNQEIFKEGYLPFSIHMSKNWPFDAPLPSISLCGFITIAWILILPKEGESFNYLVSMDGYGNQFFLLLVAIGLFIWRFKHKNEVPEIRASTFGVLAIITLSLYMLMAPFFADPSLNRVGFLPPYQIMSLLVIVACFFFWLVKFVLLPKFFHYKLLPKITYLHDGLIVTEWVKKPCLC

[2] = molecular target: T2, Pho84 tagged with the N-terminal half of Citrine (PHO84-N-Citrine) (S. cerevisiae (endogenous gene, tagged)) (UniProt P25297)
T2 sequence: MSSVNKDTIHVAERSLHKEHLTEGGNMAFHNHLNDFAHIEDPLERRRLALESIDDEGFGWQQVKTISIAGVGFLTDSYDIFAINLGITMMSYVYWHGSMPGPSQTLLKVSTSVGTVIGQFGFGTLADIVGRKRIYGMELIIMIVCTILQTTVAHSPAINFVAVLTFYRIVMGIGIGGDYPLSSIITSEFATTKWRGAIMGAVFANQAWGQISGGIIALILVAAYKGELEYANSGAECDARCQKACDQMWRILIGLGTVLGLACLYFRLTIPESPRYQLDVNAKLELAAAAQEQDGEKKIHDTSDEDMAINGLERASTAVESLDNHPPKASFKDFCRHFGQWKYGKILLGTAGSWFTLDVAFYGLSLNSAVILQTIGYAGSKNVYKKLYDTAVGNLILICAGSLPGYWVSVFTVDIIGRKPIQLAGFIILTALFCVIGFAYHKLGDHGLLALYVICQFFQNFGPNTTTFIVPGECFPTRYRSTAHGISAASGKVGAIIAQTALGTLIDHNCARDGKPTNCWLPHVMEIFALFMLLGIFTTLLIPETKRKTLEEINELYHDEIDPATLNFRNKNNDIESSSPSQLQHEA

[3] = molecular target: T3, Mep2 tagged with the N-terminal half of Citrine (MEP2-N-Citrine) (S. cerevisiae (endogenous gene, tagged)) (UniProt P41948)
T3 sequence: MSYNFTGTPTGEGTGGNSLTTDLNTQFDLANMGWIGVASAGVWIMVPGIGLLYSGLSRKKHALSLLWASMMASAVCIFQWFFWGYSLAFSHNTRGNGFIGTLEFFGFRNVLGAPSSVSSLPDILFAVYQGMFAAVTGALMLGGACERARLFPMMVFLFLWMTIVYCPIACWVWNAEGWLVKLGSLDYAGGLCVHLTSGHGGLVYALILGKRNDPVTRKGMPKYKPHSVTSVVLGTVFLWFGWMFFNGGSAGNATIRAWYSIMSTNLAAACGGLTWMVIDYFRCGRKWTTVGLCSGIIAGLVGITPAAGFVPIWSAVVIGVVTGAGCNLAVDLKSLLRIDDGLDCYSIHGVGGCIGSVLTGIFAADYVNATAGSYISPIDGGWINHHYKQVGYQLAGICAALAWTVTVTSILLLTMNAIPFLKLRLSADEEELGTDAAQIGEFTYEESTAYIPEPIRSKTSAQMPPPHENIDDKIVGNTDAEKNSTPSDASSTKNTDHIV

binding [1]: no binding
binding [2]: binds
binding [3]: binds
B1: Sch9 tagged with the C-terminal half of Citrine (SCH9-C-Citrine) (enzyme, UniProt P11792 1-824)
chain: MMNFFTSKSSNQDTGFSSQHQHPNGQNNGNNNSSTAGNDNGYPCKLVSSGPCASSNNGALFTNFTLQTATPTTAISQDLYAMGTTGITSENALFQMKSMNNGISSVNNNNSNTPTIITTSQEETNAGNVHGDTGGNSLQNSEDDNFSSSSTTKCLLSSTSSLSINQREAAAAAYGPDTDIPRGKLEVTIIEARDLVTRSKDSQPYVVCTFESSEFISNGPESLGAINNNNNNNNNNQHNQNQHINNNNENTNPDAASQHHNNNSGWNGSQLPSIKEHLKKKPLYTHRSSSQLDQLNSCSSVTDPSKRSSNSSSGSSNGPKNDSSHPIWHHKTTFDVLGSHSELDISVYDAAHDHMFLGQVRLYPMIHNLAHASQHQWHSLKPRVIDEVVSGDILIKWTYKQTKKRHYGPQDFEVLRLLGKGTFGQVYQVKKKDTQRIYAMKVLSKKVIVKKNEIAHTIGERNILVTTASKSSPFIVGLKFSFQTPTDLYLVTDYMSGGELFWHLQKEGRFSEDRAKFYIAELVLALEHLHDNDIVYRDLKPENILLDANGNIALCDFGLSKADLKDRTNTFCGTTEYLAPELLLDETGYTKMVDFWSLGVLIFEMCCGWSPFFAENNQKMYQKIAFGKVKFPRDVLSQEGRSFVKGLLNRNPKHRLGAIDDGRELRAHPFFADIDWEALKQKKIPPPFKPHLVSETDTSNFDPEFTTASTSYMNKHQPMMTATPLSPAMQAKFAGFTFVDESAIDEHVNNNRKFLQNSYFMEPGSFIPGNPNLPPDEDVIDDDGDEDINDGFNQEKNMNNSHSQMDFDGDQHMDDEFVSGRFEI
